The other results are listed elsewhere or left out.

Sequences of proteins named here, by UniProt entry; tags and fusion partners are left off.
UniProt Q0JBA9, entry or part of it: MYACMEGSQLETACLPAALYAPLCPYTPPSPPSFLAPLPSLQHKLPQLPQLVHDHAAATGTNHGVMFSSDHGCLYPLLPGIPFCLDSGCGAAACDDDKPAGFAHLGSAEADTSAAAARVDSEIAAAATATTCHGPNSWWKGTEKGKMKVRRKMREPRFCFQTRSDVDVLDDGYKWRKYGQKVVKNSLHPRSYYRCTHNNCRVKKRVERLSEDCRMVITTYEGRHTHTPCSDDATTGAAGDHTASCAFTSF

The target in the assay is OsWRKY34 (Oryza sativa, UniProt Q0JBA9 1-250). Description: protein-binding microarray (RPBM); PBS, 2% BSA, 51.3 ng/ul salmon testes DNA, 50 uM zinc acetate, 200 nM TF, 25 C, 1 h; high values mean tight binding. The conditions noted are these: protein: recombinant; tags: N-terminal polyhistidine and DsRed monomer fusion (pET32a); label: CyDye5-dUTP incorporated in the synthesized complementary strand; 3' TTTTT single-stranded linker to array surface; dsDNA, one strand shown. Summed up:
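Binding signal here means per-feature fluorescence intensity in arbitrary units. The values were read on an Axon 4000B scanner after a custom Agilent array, double-stranded by primer extension with Cy5-dUTP, was incubated with 200 nM protein at 25 °C for 1 h in PBS with 2% BSA, salmon testes DNA and 50 µM zinc acetate, then washed. The proteins were transcription factors with an N-terminal polyhistidine tag and DsRed, expressed in E. coli BL21-CodonPlus and purified on Ni–NTA.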
On to “ATCAATACGTGACTTGCTAGATTCTGTACTTTCCATCGTCCGGAGTCACCTAGTGCAG”, for which the binding signal is 10800 fluorescence intensity (a.u.). For the sequence “TCAGTCAATTTCTCTCGTCAACTCCTCTGCCTCACTCTGCCGGAGTCACCTAGTGCAG”, the binding signal was 10500 fluorescence intensity (a.u.). For “CGGGCGATTCTAGGGTTATGGTTAGGGTTTTTTTTATTTTCGGAGTCACCTAGTGCAG”, the binding signal was 14500 fluorescence intensity (a.u.). Regarding “TGCCTACACAGTACACACAGTGCGTTTCCATTTTGTTCTTCGGAGTCACCTAGTGCAG”, the binding signal is 9140 fluorescence intensity (a.u.).

As to “CCTATATTTTGGTGGTGTTTTATGCCCTCACTATCATTTTCGGAGTCACCTAGTGCAG”, the binding signal was 10900 fluorescence intensity (a.u.). As to “TAGGATGTGAGTACGGGGTTGGCTTATTTTGGAATAGAGTCGGAGTCACCTAGTGCAG”, the binding signal is 12400 fluorescence intensity (a.u.). “GCTTTTGCGTCGGACCTGCCGCACCGCCACCTGCGATGACCGGAGTCACCTAGTGCAG”: the binding signal is 11900 fluorescence intensity (a.u.). Consider “ACACCGCCCACTCTTGCAGAATTCTTCCTCTCCGCTTCTCCGGAGTCACCTAGTGCAG”, for which the binding signal was 8930 fluorescence intensity (a.u.).

For “CTAGCCAACTGCGCCACCACCCCATCGATGTCCAATGGTACGGAGTCACCTAGTGCAG”, the binding signal is 8120 fluorescence intensity (a.u.). On to “CCCTCCTCTCCGCGCGCGCCACCTGTCCATCCGCGCGGAGCGGAGTCACCTAGTGCAG”, for which the binding signal was 8970 fluorescence intensity (a.u.). Turning to “CTATTTTGCGATGTGTATTTTCCAAAACCGATTCCATAATCGGAGTCACCTAGTGCAG”, the binding signal was 8180 fluorescence intensity (a.u.). “GCCACGAAGCCATGGCGGCGCCGTCCTCCCTCGCGTCGTCCGGAGTCACCTAGTGCAG”: the binding signal was 8520 fluorescence intensity (a.u.). Turning to “GTTTGTCTTGATTTATTGCTAGGATTTGAATTTTTTTTGACGGAGTCACCTAGTGCAG”, the binding signal was 9340 fluorescence intensity (a.u.). The figure for “ATAGTTCACCTGTATATGCGTAAATCAATGGTTCAATGTTCGGAGTCACCTAGTGCAG” is 9110 fluorescence intensity (a.u.); for “CGTCGACGACGTCTCGATCGATCGGTGGTGGTGGTGGTGGCGGAGTCACCTAGTGCAG” it is 8540 fluorescence intensity (a.u.).

As for “CACGTCACCTGCATATGCCCTTCTTCCTCGCCGGCCACACCGGAGTCACCTAGTGCAG”, the binding signal was 11000 fluorescence intensity (a.u.). As to “GCGCCAGTCCAACGCCGGTCAGGAATTATATCTCTCTCTTCGGAGTCACCTAGTGCAG”, the binding signal was 9930 fluorescence intensity (a.u.). As for “TAGATATGGTTTTGCTGTTAGGGGACGATTTTTTAACTCGCGGAGTCACCTAGTGCAG”, the binding signal was 10400 fluorescence intensity (a.u.). Then “CACCGTTGATTTTTTTAAATATGTTTGACCGTTCGTTTTACGGAGTCACCTAGTGCAG”, with 12000 fluorescence intensity (a.u.). As to “AGTGGATGAGTTTGAGTTTTAGGATTTAGTGGGGTATTATCGGAGTCACCTAGTGCAG”, the binding signal was 15100 fluorescence intensity (a.u.). Regarding “ATTTTCGTGTTATTTTTGGTTCTGGTTGATTGATCGATTTCGGAGTCACCTAGTGCAG”, the binding signal is 12900 fluorescence intensity (a.u.). The figure for “TCTGTTTTTGCTCTGTTTTTCTATGTTGTCGTATTTTCGTCGGAGTCACCTAGTGCAG” is 15300 fluorescence intensity (a.u.); for “GCTGCTCACATTCTCATCATCGCATACACACACTTAACTTCGGAGTCACCTAGTGCAG” it is 11500 fluorescence intensity (a.u.); for “TCATTGTTCTCACTTCCTCGTCTTGAGCACTTGAGTCTCTCGGAGTCACCTAGTGCAG” it is 8420 fluorescence intensity (a.u.). For “ACATCCATCCACTCAACCCATTCTACCGTATTAAGCCAATCGGAGTCACCTAGTGCAG”, the binding signal is 8192 fluorescence intensity (a.u.). “CCTGTCCTACGTAGCATCACATATTCGTTGTTTTTTGTTTCGGAGTCACCTAGTGCAG”: the binding signal is 11300 fluorescence intensity (a.u.). In the case of “CATCAGTCGCTTAATAATGCGCTTTCCTTCACCGGATTATCGGAGTCACCTAGTGCAG”, the binding signal was 8310 fluorescence intensity (a.u.). As to “CTGCGTCGGTTCTGAGTTTGCTTCGTCTCCGGGCTCGCTGCGGAGTCACCTAGTGCAG”, the binding signal was 13700 fluorescence intensity (a.u.). With “TGGTGTGATGTGTCGTGGGTTTAAGGGACAAATAAGAAAACGGAGTCACCTAGTGCAG”, the binding signal is 8710 fluorescence intensity (a.u.). For “TAAGCGAAGCACTACTGTTCACTTTCAGGCCTCATAACTGCGGAGTCACCTAGTGCAG”, the binding signal was 8600 fluorescence intensity (a.u.).

Consider “CAACCACACCAAACGCAACCCGTTCCTACCAAGATTCTCTCGGAGTCACCTAGTGCAG”, for which the binding signal was 8940 fluorescence intensity (a.u.). Then “GTCGGTTTTTAAGTTCATTCGCTTTTGGAAATACAAATCCCGGAGTCACCTAGTGCAG”, with 11100 fluorescence intensity (a.u.); and “CGGTAGAAAGCCCACCACTCGCTCGCCAGTTCGTCGTCCTCGGAGTCACCTAGTGCAG”, with 10500 fluorescence intensity (a.u.). Then “GTTGAGGTTAGCCTTCATTTTTTTTTCTTGTGGTATATATCGGAGTCACCTAGTGCAG”, with 10000 fluorescence intensity (a.u.); and “TCACAACCTTTCCTTGTGTATAGCCATATTTGCACATTTACGGAGTCACCTAGTGCAG”, with 9220 fluorescence intensity (a.u.); and “TTTCTACGGGTTGTGGGCTAGGGTTTCGATCGGTTTGGAGCGGAGTCACCTAGTGCAG”, with 11900 fluorescence intensity (a.u.). In the case of “ACGCACCCCGTTCCTAACGCTACCTTGTTTTGCCTATGTACGGAGTCACCTAGTGCAG”, the binding signal was 9230 fluorescence intensity (a.u.). As for “ACGCTGTTGATTTTTTTAAACATGTTTGACCGTTCGTCTTCGGAGTCACCTAGTGCAG”, the binding signal was 13200 fluorescence intensity (a.u.). In the case of “CTCGTTCTGCACTACTACTCGGCCACCATTTCCTTTCCTTCGGAGTCACCTAGTGCAG”, the binding signal was 12900 fluorescence intensity (a.u.). The figure for “GTTAGCCCAGCCAGCGATTTCACCATCTCATCTCATCTCACGGAGTCACCTAGTGCAG” is 9860 fluorescence intensity (a.u.). Then “TGCCTGTGTCTGTGTGTGTGTTCTACTCCTACCATGAGAGCGGAGTCACCTAGTGCAG”, with 8690 fluorescence intensity (a.u.); and “TTCACCCTCACTTTATTCATCTATAGTAGTTTCATCAGTTCGGAGTCACCTAGTGCAG”, with 8060 fluorescence intensity (a.u.).
